We go through one substance from publication PMC11700592, “Noncoding RNA Terc-53 and hyaluronan receptor Hmmr regulate aging in mice” (Protein & Cell, 2024).

Sequences of proteins named here, by UniProt entry; tags and fusion partners are left off.
UniProt Q61510: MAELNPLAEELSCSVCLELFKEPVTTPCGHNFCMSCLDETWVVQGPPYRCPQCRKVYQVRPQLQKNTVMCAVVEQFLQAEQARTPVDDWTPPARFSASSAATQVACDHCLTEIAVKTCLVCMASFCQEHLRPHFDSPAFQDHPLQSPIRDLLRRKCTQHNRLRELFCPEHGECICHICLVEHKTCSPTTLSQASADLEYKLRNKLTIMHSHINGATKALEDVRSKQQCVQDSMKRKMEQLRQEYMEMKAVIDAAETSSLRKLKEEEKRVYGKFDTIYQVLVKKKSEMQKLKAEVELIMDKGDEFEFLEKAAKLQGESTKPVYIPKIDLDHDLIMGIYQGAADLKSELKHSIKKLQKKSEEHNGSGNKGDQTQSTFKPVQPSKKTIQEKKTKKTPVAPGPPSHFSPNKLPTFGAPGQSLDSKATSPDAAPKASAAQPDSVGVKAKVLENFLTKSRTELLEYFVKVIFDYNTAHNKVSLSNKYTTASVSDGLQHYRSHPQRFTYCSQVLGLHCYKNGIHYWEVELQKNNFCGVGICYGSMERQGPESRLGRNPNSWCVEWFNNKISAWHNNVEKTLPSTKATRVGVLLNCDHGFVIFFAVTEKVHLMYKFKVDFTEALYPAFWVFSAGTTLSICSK

Results are given in words; binding and its absence hold for the method and conditions named. In cells and extracts the contact can be indirect. Some binding calls cover weakened binding; strength is not graded here.

In this assay the target is T1, hyaluronan-mediated motility receptor (Hmmr), endogenous (mouse (endogenous in N2a)) (UniProt Q00547).
T1 sequence: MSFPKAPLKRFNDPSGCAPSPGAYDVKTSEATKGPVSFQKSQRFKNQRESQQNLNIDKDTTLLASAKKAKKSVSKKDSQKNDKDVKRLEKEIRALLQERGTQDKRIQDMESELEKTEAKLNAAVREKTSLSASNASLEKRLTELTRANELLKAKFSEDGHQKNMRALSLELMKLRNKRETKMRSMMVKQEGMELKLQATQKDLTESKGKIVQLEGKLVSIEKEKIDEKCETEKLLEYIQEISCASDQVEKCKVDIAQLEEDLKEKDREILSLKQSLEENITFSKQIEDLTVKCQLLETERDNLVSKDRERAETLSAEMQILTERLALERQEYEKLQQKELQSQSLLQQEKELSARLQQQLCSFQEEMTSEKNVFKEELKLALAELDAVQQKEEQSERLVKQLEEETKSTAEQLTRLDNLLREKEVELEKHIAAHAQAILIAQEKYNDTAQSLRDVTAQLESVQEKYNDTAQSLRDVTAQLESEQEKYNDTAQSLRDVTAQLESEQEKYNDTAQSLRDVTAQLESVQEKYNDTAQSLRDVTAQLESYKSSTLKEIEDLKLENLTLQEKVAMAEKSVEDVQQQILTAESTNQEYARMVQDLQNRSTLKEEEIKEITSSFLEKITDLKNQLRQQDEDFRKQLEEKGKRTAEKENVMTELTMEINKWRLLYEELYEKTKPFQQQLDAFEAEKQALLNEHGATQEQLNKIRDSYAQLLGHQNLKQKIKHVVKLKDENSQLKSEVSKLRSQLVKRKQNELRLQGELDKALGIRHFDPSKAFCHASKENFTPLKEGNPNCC
The experiment in a line: co-IP; endogenous proteins; Hmmr antibody on Protein G/A Sepharose beads, blot with Trim25 antibody; IP lysis buffer 50 mmol/L Tris-HCl pH 7.4, 10 mmol/L KCl, 1.5 mmol/L MgCl2, 1% NP-40 with RNase inhibitors; 4°C overnight.

In the case of “Trim25, endogenous (from UniProt Q61510 1-634)”, the binding entry is on record as “binds”.
